Results from PubChem BioAssay AID504834 (National Center for Advancing Translational Sciences (NCATS), 2011).
About 22,000 (6.9%) of roughly 320,000 compounds were called active. This list was built around the results that the source calls inconclusive (neither active nor inactive); the mix of calls is not that of the screen. Calls follow the shape of the dose curve; as a rule, active = well fitted inhibition curve with a large enough effect; inconclusive = small, poorly fitted or top-dose-only effect, or another doubt; inactive = no such curve, though single readings can be large or run the other way. Potencies beside an inconclusive call are fits to weak or partial responses and may not hold up.

Test: Primary qHTS for delayed death inhibitors of the malarial parasite plastid, 96 hour incubation
Details: P. falciparum luciferase reporter growth; series mostly up to 28.7 µM; activity change, negative = inhibition: at the top concentration
In short: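 Erythrocytes infected with luciferase-expressing P. falciparum were dispensed at 2% hematocrit and 0.05% parasitemia (final), then incubated with compounds 96 hours at 37 C in 5% CO2. Luminescence after detection reagent addition reported growth.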
% is scaled to controls: 0 for no effect and ±100 for the full control effect; potency is read from the fitted curve at half-maximal effect.

Compound | activity change, negative = inhibition | Potency
C=CCSC1=C(C#N)C(c2ccccc2C)CC(=O)N1 (stereo not drawn) | inactive: 35.7% | 
CC(Sc1nc(N2CCOCC2)c2c(c1C#N)CC(C)(C)OC2)C(=O)O (stereo not drawn) |  | inconclusive: 3.7 µM [inhibitor, partial curve, poor fit]
CCOc1cc2c(cc1OCC)-n1cccc1C(c1ccc(C(C)C)cc1)NC2 (stereo not drawn) |  | inconclusive: 0.522 µM [inhibitor, full curve]
COc1cc(CN2CCN(C(O)(c3ccccc3)c3ccccc3)CC2)cc(OC)c1OC |  | inconclusive: 1.85 µM [inhibitor, full curve]
Cc1ccccc1CC(=O)Nc1ccc(S(=O)(=O)N2CCOCC2)cc1 | inactive: 56.5% | 
CCOC(=O)c1cn2nc(-c3ccc(OC)cc3)cc2nc1C1CCN(C(=O)OC(C)(C)C)CC1 |  | inconclusive: 16.5 µM [inhibitor, single point]
O/N=C/c1cc(Cl)ccc1OCc1ccccc1Cl | inactive: 38% | 
Cc1ccc2nc(-c3cccnc3SCC(=O)N3c4ccccc4CC3C)[nH]c2c1 (stereo not drawn) |  | inconclusive: 11.7 µM [inhibitor, single point]
O=C(O)c1cccc(NC(=S)N/N=C/c2ccccn2)c1 |  | inconclusive: 0.465 µM [inhibitor, full curve, poor fit]
COCCNC(=O)CCCCCNS(=O)(=O)c1ccc(C)cc1 | inactive: 0.479% | 
O=C(c1ccc2c(=O)n3c(nc2c1)CCC3)N1CCN(S(=O)(=O)c2cccc(F)c2)CC1 |  | inconclusive: 13.1 µM [inhibitor, partial curve, poor fit]
Cc1sc2nc(N3CCOCC3)[nH]c(=O)c2c1-c1ccccc1 | inactive: -27% | 
CNC(=S)SCCOc1ccccc1C |  | inconclusive: 18.5 µM [inhibitor, single point]
Cc1ccc(C(CNC(=O)Nc2ccccc2)N2CCN(C)CC2)cc1 (stereo not drawn) | inactive: 14.9% | 
CCOc1cc(CN2CCN(c3ncccn3)CC2)ccc1OC |  | inconclusive: 18.5 µM [inhibitor, single point]
COc1cccc(CNC(=O)CCC2CCCN(C(=O)c3ccoc3)C2)c1 (stereo not drawn) | inactive: 1.74% | 
COC(=O)/C=C/c1ccccc1S(=O)(=O)N(Cc1ccccc1)Cc1ccco1 |  | inconclusive: 4.15 µM [inhibitor, full curve]
COc1ccc(C(=O)NNC(=O)CCCCC(=O)NNC(=O)c2ccc(OC)cc2)cc1 |  | inconclusive: 13.1 µM [inhibitor, single point]
Nn1c(SCC(=O)Nc2nccs2)nnc1-c1cccnc1 | inactive: -27.7% | 
CCSc1nnc(NC(=O)CCNS(=O)(=O)c2ccccc2F)s1 |  | inconclusive: 9.28 µM [inhibitor, partial curve]
Cc1ccc(S(=O)(=O)N2c3ccccc3-c3c(ssc3=S)C2(C)C)cc1 |  | inconclusive: 18.5 µM [inhibitor, single point]
CCc1cn(C2CC(O)C(CO)O2)c(=O)[nH]c1=O (stereo not drawn) | inactive: -14.7% | 
CN(C)c1nc(N(C)C)nc(N(C#N)Cc2ccc(Cl)cc2)n1 | inactive: 13.2% | 
CCNc1nc(NCC)nc(Oc2ccc(C(=O)OC)cc2)n1 | inactive: 37.6% | 
Nc1ccc2c(c1)Nc1ccccc1CC2 | inactive: 10.2% | 

Compound | activity change, negative = inhibition | Potency
COc1ccc(/C(O)=C2/C(=O)C(=O)N(c3ccccn3)C2c2ccc(F)cc2)cc1 (stereo not drawn) |  | active: 6.57 µM
CC(=O)Nc1ccc([As](=O)(O)c2ccc([N+](=O)[O-])cc2)cc1 |  | inconclusive: 2.33 µM [inhibitor, partial curve, poor fit]
NS(=O)(=O)c1cc2c(cc1Cl)N[C@@H](C(Cl)Cl)NS2(=O)=O |  | inconclusive: 2.56 µM [inhibitor, partial curve]
CC1CCCC(C)N1/N=C/c1ccc(O)c(O)c1 (stereo not drawn) |  | inconclusive: 18.5 µM [inhibitor, partial curve, poor fit]
Cc1cc(C(=O)Nc2c(F)cc(F)cc2Br)cs1 |  | active: 14.7 µM
COC(=O)c1cc(=O)n(-c2ccc(F)cc2)c(=Nc2ccc(F)cc2)s1 |  | inconclusive: 18.5 µM [inhibitor, single point]
Cn1c(-c2sc3cc(C(F)(F)F)cnc3c2-c2cccs2)n[nH]c1=S |  | inconclusive: 10.4 µM [inhibitor, single point]
O=C(Nc1c2c(nn1-c1ccc(F)cc1)CSC2)c1ccc(S(=O)(=O)N2CCOCC2)cc1 | inactive: 7.17% | 
CC(C)(C)NC(=O)c1cc2c(ccc3ccccc32)oc1=O | inactive: 106% | 
Cc1cccc(N2C(=O)NC(=O)/C(=C/c3ccc(-c4ccc(C(=O)O)c(Cl)c4)o3)C2=O)c1 |  | inconclusive: 10.4 µM [inhibitor, single point]
O=C(Nc1ccc(Oc2ccccc2)nc1)C1CCCCN1Cc1ccc(O)cc1 (stereo not drawn) |  | inconclusive: 14.7 µM [inhibitor, partial curve, poor fit]
Cc1csc(=Nc2cccnc2)n1CC1CCCCC1 |  | inconclusive: 18.5 µM [inhibitor, partial curve, poor fit]
Cc1cc(C)nc(N2N=C(c3ccccc3)CC2=O)n1 |  | inconclusive: 16.5 µM [inhibitor, single point]
CN(C)S(=O)(=O)c1ccc(NC=C(C#N)C#N)cc1 |  | inconclusive: 18.5 µM [inhibitor, single point]
CCOC(=O)c1nnsc1-c1ccc(-c2snnc2C(=O)OCC)cc1 | inactive: 5.53% | 
CCN(Cc1ccccc1)C(=S)Nc1cc(C(=O)OC)ccc1C(=O)OC |  | inconclusive: 18.5 µM [inhibitor, single point]
CCN1C(=O)NC2C1N(S(C)(=O)=O)CCN2S(C)(=O)=O (stereo not drawn) | inactive: 23% | 
CCCNC(=O)C1CCN(S(=O)(=O)c2ccc3nc4c(c(C(=O)O)c3c2)CCCCC4)CC1 |  | inconclusive: 10.4 µM [inhibitor, single point]
Cc1ccc(N2C(=O)CN(Cc3ccccc3)C2=S)cc1C |  | inconclusive: 1.04 µM [inhibitor, partial curve, poor fit]
COc1cc(/C=C/C(=O)O)cc(S(=O)(=O)Nc2ccccc2Oc2ccccc2)c1OC | inactive: -20.8% | 
Cc1ccc(C)c(N(CC(=O)N2CCCC2)S(C)(=O)=O)c1 |  | inconclusive: 14.7 µM [inhibitor, single point]
O=C(O)CCCCCNS(=O)(=O)c1ccc2c3c(cccc13)C(=O)N2 |  | inconclusive: 18.5 µM [inhibitor, partial curve, poor fit]
Cc1ccc(N2CCN(S(=O)(=O)c3ccc(F)cc3)CC2)c(C)c1 |  | inconclusive: 18.5 µM [inhibitor, single point]
O/N=C1\CC/C(=N\O)c2nn(-c3ccccc3Cl)nc21 |  | inconclusive: 8.28 µM [inhibitor, partial curve, poor fit]
COc1cccc(NC(=O)N2CCN(S(C)(=O)=O)CC2)c1 |  | inconclusive: 3.29 µM [inhibitor, partial curve, poor fit]

Among those listed so far, these have an aryl thioether with sulfur outside any ring.
Compound | activity change, negative = inhibition | Potency
CC(Sc1nc(N2CCOCC2)c2c(c1C#N)CC(C)(C)OC2)C(=O)O (stereo not drawn) |  | inconclusive: 3.7 µM [inhibitor, partial curve, poor fit]
Cc1ccc2nc(-c3cccnc3SCC(=O)N3c4ccccc4CC3C)[nH]c2c1 (stereo not drawn) |  | inconclusive: 11.7 µM [inhibitor, single point]
Nn1c(SCC(=O)Nc2nccs2)nnc1-c1cccnc1 | inactive: -27.7% | 
CCSc1nnc(NC(=O)CCNS(=O)(=O)c2ccccc2F)s1 |  | inconclusive: 9.28 µM [inhibitor, partial curve]

Next part

Compound | activity change, negative = inhibition | Potency
CCONC(=O)Nc1ccccc1 | inactive: 36.4% | 
CCN(CC(=O)Nc1cc(Cl)ccc1C)C(=O)Cn1c(=O)cnc2ccccc21 | inactive: 36.2% | 
COc1ccc(OC)c(/C=N/NC(=O)CSc2nnc(C)n2-c2ccccc2)c1 |  | inconclusive: 10.4 µM [inhibitor, single point]
Cc1ccc2oc(=O)cc(CN3CCOCC3)c2c1 |  | active: 7.38 µM
CC1CN(S(=O)(=O)c2cccc(C(=O)Nc3cc(Cl)ccc3N3CCOCC3)c2)CC(C)O1 (stereo not drawn) |  | active: 9.28 µM
CCC(=O)N1CCN(c2nc3ccc(Br)cc3s2)CC1 | inactive: 42.7% | 
N#Cc1nc(-c2ccc(Cl)cc2)oc1NCc1cccc2c1OCO2 |  | inconclusive: 10.4 µM [inhibitor, partial curve]
CC(C)(C)NC(=O)/C(=C\c1ccc(Br)cc1)NC(=O)c1cccs1 |  | inconclusive: 18.5 µM [inhibitor, single point]
CCCc1cc(=O)[nH]c(SCC(=O)Nc2cccc(S(=O)(=O)N3CCOCC3)c2)n1 |  | inconclusive: 0.329 µM [inhibitor, full curve]
COc1cccc(-c2cc(C(=O)Nc3ccc4c(c3)OCCO4)c3ccccc3n2)c1 |  | active: 6.57 µM
O=C(C1CCCN(S(=O)(=O)c2ccc(Br)cc2)C1)N1CCOCC1 (stereo not drawn) | inactive: -23.7% | 
S=C(Nc1ccc(Cl)cc1)Nc1cccc2cnccc12 |  | active: 11.7 µM
COc1ccccc1-n1cnnc1SCC(=O)NC1CCS(=O)(=O)C1 (stereo not drawn) | inactive: 0% | 
COc1ccccc1-c1noc(CCC(=O)NC2CCCC2)n1 |  | active: 2.62 µM
Cc1ccc(OCC(=O)Nc2ccc(S(=O)(=O)N3CCOCC3)cc2)c(Br)c1 |  | inconclusive: 0.0033 µM [inhibitor, full curve, poor fit]
CCCCn1c(N)c(N(CCOC)C(=O)c2cc(Cl)nc3ccccc23)c(=O)[nH]c1=O |  | inconclusive: 0.465 µM [inhibitor, full curve, poor fit]
OC(COCC1COc2ccccc2O1)CN1CCN(c2ccccc2)CC1 (stereo not drawn) |  | inconclusive: 0.0586 µM [inhibitor, full curve, poor fit]
Cc1cccc(CN2CCN(C(=O)Cc3ccccc3)CC2)c1 |  | inconclusive: 8.28 µM [inhibitor, single point]
c1ccc(CSc2ccc(-c3ccc4c(c3)OCO4)nn2)cc1 | inactive: 162% | 
OCC[C@H]1C[C@@H](O)[C@H](O)[C@@]2(CCc3ccccc3CO2)O1 |  | inconclusive: 1.85 µM [inhibitor, single point]
CC1(C)NC(=O)N(CCCCOc2ccccc2[N+](=O)[O-])C1=O |  | inconclusive: 18.5 µM [inhibitor, single point]
COc1ccccc1OCc1nc(-c2cccc([N+](=O)[O-])c2)no1 | inactive: 41.2% | 
Cc1onc(-c2ccccc2)c1C(=O)N(Cc1ccco1)Cc1cccs1 |  | inconclusive: 11.7 µM [inhibitor, single point]
